Measured values as given in PubChem BioAssay AID2685 (National Center for Advancing Translational Sciences (NCATS), 2010).
This is one part of the list. The main result of the screen is listed elsewhere. These columns were measured beside it and carry no call. The list favours compounds with an active or inconclusive main result. The note in brackets gives the kind of curve behind each potency; many fits are weak.

Assay: qHTS Assay for Lipid Storage Modulators in Drosophila S3 Cells;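 for cell number change: cells counted by Cell Tracker Red CMTPX staining in the red channel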
Details: BODIPY lipid droplet fluorescence, 18-24 h; for cell number change: measured here: cell count max response, cells fed with added oleic acid
Outline: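 Drosophila S3 cells loaded with oleic acid (400 uM, as added) and compounds at several concentrations; lipid droplets imaged by 488-nm laser-scanning cytometry, 500–530 nm intensity and object ratio to cell channel. Percent activity normalized to 20 uM Triacsin C.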

[1] = measured here: cell number channel AC50, cells fed with added oleic acid
[2] = measured here: lipid fluorescence (Fed channel) AC50, cells fed with added oleic acid

| SMILES | cell number change [%] | AC50 [1] | AC50 [2] |
| --- | --- | --- | --- |
| COc1ccc(CNC(=O)C(=O)NCCC2CCCCN2S(=O)(=O)c2cccs2)cc1 (stereo not drawn) | -33.3 | 16.4 µM [falling, single point] | 29.1 µM [falling, single point] |
| O=C(CCCCCn1c(=O)[nH]c2ccsc2c1=O)NCc1ccc2c(c1)OCO2 | -11.5 | – | 8.2 µM [falling, partial curve] |
| Cc1ccc2c(c1)-c1cc(C)nn1C(c1sccc1C)N2 (stereo not drawn) | -24.3 | – | – |
| O=C(NCc1ccccc1)[C@H]1C[C@@H]1[C@H](NP(=O)(c1ccccc1)c1ccccc1)c1ccccc1 | 44.9 | 0.461 µM [rising, full curve] | 7.31 µM [falling, single point] |
| COc1ccc(C(=O)NC23CC4CC(CC(C4)C2)C3)cc1OC | -8.21 | – | – |
| COc1cccc(NC(=O)CN(C)C(C)C(=O)Nc2cc([N+](=O)[O-])ccc2Cl)c1 (stereo not drawn) | 45.6 | 20.6 µM [rising, single point] | – |
| Cc1ccc(C(=O)c2c3ccccc3[n+]([O-])n2CCC(N)=O)cc1 | 5.99 | – | 6.51 µM [falling, single point] |
| Cc1cc(C)n(C(=O)c2ccc([N+](=O)[O-])cc2Cl)n1 | 9.09 | – | 0.13 µM [rising, full curve, poor fit] |
| Cc1ccsc1C(=O)OC(C)C(=O)NC1CCCCC1C (stereo not drawn) | -4.42 | – | – |
| C=CCn1c(SCC(=O)N(C)C2CCS(=O)(=O)C2)nnc1-c1ccncc1 (stereo not drawn) | 38.2 | 0.231 µM [rising, full curve, poor fit] | 6.51 µM [falling, single point] |
| CCn1ncc(C2=NOC(C(=O)N3CCC(C(N)=O)CC3)C2)c1C (stereo not drawn) | -6.49 | – | 0.731 µM [falling, single point] |
| NS(=O)(=O)c1ccc(S(=O)(=O)N(CCc2ccccc2)Cc2ccccn2)cc1 | -11.1 | – | 29.1 µM [rising, single point] |
| O=C(CN1CCC(NC(=O)Cc2ccccc2)CC1)Nc1ccccc1Br | 23.5 | – | 4.61 µM [rising, single point] |
| O=S(=O)(NCCN1CCCC1)c1cccc2cccnc12 | 0.759 | – | – |
| COc1ccc(CCNC(=O)CN(c2ccccc2OC)S(C)(=O)=O)cc1 | -9.4 | 1.64 µM [falling, partial curve, poor fit] | 23.1 µM [falling, partial curve] |
| CCCCP(=O)(CCCC)Cc1ccccc1O | -22.8 | – | 0.164 µM [falling, full curve] |

An excerpt of these results, field by field.
O=C(CN1CCC(NC(=O)Cc2ccccc2)CC1)Nc1ccccc1Br
  cell number change [%]: 23.5; AC50 [2]: 4.61 µM [rising, single point]
CCCCP(=O)(CCCC)Cc1ccccc1O
  cell number change [%]: -22.8; AC50 [2]: 0.164 µM [falling, full curve]

Continued:

| SMILES | cell number change [%] | AC50 [1] | AC50 [2] |
| --- | --- | --- | --- |
| CCC(=O)N1N=C(c2ccc(C)o2)CC1c1ccc(N(C)C)cc1 (stereo not drawn) | -7.23 | 6.51 µM [rising, single point] | – |
| Cc1cc(C)c(C)c(C(=O)c2ccccc2C(=O)O)c1C | 33.5 | 4.61 µM [rising, partial curve, poor fit] | – |
| COc1cc(CSC)nc(-c2ccccc2)n1 | 7.73 | – | – |
| COc1ccc(S(=O)(=O)N2CCCCC2)cc1NC(=O)c1cnc(C)cn1 | 19.2 | – | 0.731 µM [falling, partial curve] |
| O=C(c1cc2ccccc2o1)N1CCN(c2ccccn2)CC1 | -1.08 | – | – |
| CCOC(=O)CSc1ncnc2c1nnn2-c1ccc(F)cc1 | -0.418 | – | 0.517 µM [falling, full curve, poor fit] |
| CNc1nc(N)c([N+](=O)[O-])c(Nc2cccc(F)c2)n1 | 25 | – | – |
| CN1C=C/C(=C\c2cc[n+](C)c3ccccc23)c2ccccc21 | -80.1 | 9.2 µM [falling, partial curve] | 7.31 µM [falling, partial curve] |
| O=C(CCCC(=O)c1ccc(O)cc1)c1ccc(O)cc1 | 3.83 | – | 29.1 µM [rising, single point] |
| COC(=O)/C=C(\Oc1ccccc1)C1(O)CCCCC1 | -13.7 | – | 0.00517 µM [falling, full curve, poor fit] |
| COc1ccc(S(=O)(=O)Nc2c(C)n(C)n(-c3ccccc3)c2=O)cc1 | 21.9 | 1.64 µM [falling, partial curve, poor fit] | – |
| COc1cccc(NC(=O)c2ccccc2-c2nc(-c3cccc(C)c3)no2)c1 | 4.33 | – | – |
| CC1(C)CC(NS(=O)(=O)OCC(Cl)(Cl)Cl)c2cc(C#N)ccc2O1 (stereo not drawn) | 10.7 | – | – |
| COc1ccc(CNC(=O)COC(=O)c2c(C)nn(-c3ccccc3)c2C)cc1OC | 8.42 | – | – |
| CCN1CCN(CCCNC(=O)c2ccc(/C=C3/Oc4ccccc4N(Cc4cccc(C)c4)C3=O)cc2)CC1 | 20.3 | 3.66 µM [rising, single point] | 23.1 µM [rising, partial curve] |
